Measured values: the supplement of paper PMC11409438
Counter-ions that a name gives are not always drawn. This is one part of the list. Most values come without repeats; read them as rough.

Tests used:
[1] = tested on: Caenorhabditis elegans ST65 (ncIs13[ajm-1::GFP]); test: 'Larvae/adult' ratio (MetaXpress pharynx counts; minimum value 1, so it appears to include adults; growth inhibition read-out); conditions: 10 µM; exposure time: 4-5 days from L1 at 20°C
[2] = tested on: Caenorhabditis elegans ST65 (ncIs13[ajm-1::GFP]); test: vulvae per adult worm (MAPK/ERK-dependent vulval induction, MetaXpress) (vulvae/adult); higher = more vulval induction (less MAPK/ERK inhibition); conditions: 10 µM; exposure time: 4-5 days from L1 at 20°C

O=C(O)c1ccc(-c2c[nH]c3ncc(-c4ccccc4)cc23)cc1C1CCCC1
'Larvae/adult' ratio [1]: 1.95
vulvae per adult worm [2]: 1

CO[C@@H](C(=O)N1Cc2[nH]nc(NC(=O)c3ccc(N4CCN(C)CC4)cc3)c2C1)c1ccccc1
'Larvae/adult' ratio [1]: 1.9
vulvae per adult worm [2]: 1.4

CC/C(=C(\c1ccc(O)cc1)c1ccc(OCCN(C)C)cc1)c1ccccc1 [4-Hydroxytamoxifen]
'Larvae/adult' ratio [1]: 5.43
vulvae per adult worm [2]: 1.57

CC(C)(C)NC(=O)[C@H]1CC[C@H]2[C@@H]3CC[C@H]4NC(=O)C=C[C@]4(C)[C@H]3CC[C@]12C [Finasteride]
'Larvae/adult' ratio [1]: 2.3
vulvae per adult worm [2]: 1.05

COc1cc(Nc2ncc3c(n2)-c2ccc(Cl)cc2C(c2c(F)cccc2OC)=NC3)ccc1C(=O)O [Alisertib (MLN8237)]
'Larvae/adult' ratio [1]: 1.33
vulvae per adult worm [2]: 0.667

CC[C@@H]1C(=O)OC[C@@H]1Cc1cncn1C [Pilocarpine HCl]
'Larvae/adult' ratio [1]: 1.8
vulvae per adult worm [2]: 0.9

Nc1nc2cc(-c3ccc4ncc(C(=O)N5CCOCC5)n4c3)ccc2o1 [Serabelisib (INK-1117,MLN-1117,TAK-117)]
'Larvae/adult' ratio [1]: 2.07
vulvae per adult worm [2]: 0.815

Cc1c(C(=O)Nc2ccc(N3C[C@@H](C)O[C@@H](C)C3)nc2)cccc1-c1ccc(OC(F)(F)F)cc1 [Sonidegib (Erismodegib, NVP-LDE225)]
'Larvae/adult' ratio [1]: 2.76
vulvae per adult worm [2]: 0.824

CCN(CC)C(=S)SSC(=S)N(CC)CC [Disulfiram]
'Larvae/adult' ratio [1]: 2.29
vulvae per adult worm [2]: 0.857

CN(C)Cc1ccc(S(=O)(=O)n2ccc(/C=C/C(=O)NO)c2)cc1 [Resminostat]
'Larvae/adult' ratio [1]: 3.27
vulvae per adult worm [2]: 0.577

CC(=O)O[C@H]1C(=O)[C@@]2(C)[C@H]([C@H](OC(=O)c3ccccc3)[C@]3(O)C[C@H](OC(=O)[C@H](O)[C@@H](NC(=O)c4ccccc4)c4ccccc4)C(C)=C1C3(C)C)[C@]1(OC(C)=O)CO[C@@H]1C[C@@H]2O [Paclitaxel]
'Larvae/adult' ratio [1]: 1.78
vulvae per adult worm [2]: 1.11

NC(=O)/C(=C/n1cnc(-c2cc(C(F)(F)F)cc(C(F)(F)F)c2)n1)c1cncnc1 [Eltanexor (KPT-8602)]
'Larvae/adult' ratio [1]: 6.5
vulvae per adult worm [2]: 0.75

CCN1C(=O)CNc2ncc(-c3ccc(-c4nc[nH]n4)nc3C)nc21
'Larvae/adult' ratio [1]: 2.12
vulvae per adult worm [2]: 0.909

CC(=O)N(O)CCCCCNC(=O)CCC(=O)N(O)CCCCCNC(=O)CCC(=O)N(O)CCCCCN [Deferoxamine mesylate]
'Larvae/adult' ratio [1]: 2.29
vulvae per adult worm [2]: 0.672

CC[C@@H]1C(=O)N(C)c2cnc(Nc3ccc(C(=O)N[C@H]4CC[C@H](N5CCN(CC6CC6)CC5)CC4)cc3OC)nc2N1C(C)C [Volasertib (BI 6727)]
'Larvae/adult' ratio [1]: 2.32
vulvae per adult worm [2]: 0.894

Cc1cc([C@@H](C)Nc2ccccc2C(=O)O)c2nc(N3CCOCC3)cc(=O)n2c1
'Larvae/adult' ratio [1]: 2.06
vulvae per adult worm [2]: 0.969

Nc1cc(C(F)(F)F)c(-c2cc(N3CCOCC3)nc(N3CCOCC3)n2)cn1 [Buparlisib (BKM120, NVP-BKM120)]
'Larvae/adult' ratio [1]: 1.87
vulvae per adult worm [2]: 1.1

O=C(NCc1ccncc1)C12CC3CC(C1)CC(c1ccc(Cl)cc1)(C3)C2
'Larvae/adult' ratio [1]: 5.89
vulvae per adult worm [2]: 0

C[C@@]1(C(=O)Nc2ccc(F)nc2)CCCN1c1nc(Nc2cc(C3CC3)n[nH]2)c2cccn2n1
'Larvae/adult' ratio [1]: 1.36
vulvae per adult worm [2]: 1

CCn1c(=O)c(-c2ccc(Cl)cc2Cl)cc2cnc(Nc3ccc(N4CCNCC4)c(F)c3)nc21
'Larvae/adult' ratio [1]: 1.66
vulvae per adult worm [2]: 0.895

COc1cc2nccc(Oc3ccc(NC(=O)C4(C(=O)Nc5ccc(F)cc5)CC4)cc3)c2cc1OC
'Larvae/adult' ratio [1]: 2.22
vulvae per adult worm [2]: 0.111

CC(O)c1cc(C(=O)N[C@@H](C)Cn2ccc(-c3ccc(C#N)c(Cl)c3)n2)n[nH]1 (stereo partly specified) [Darolutamide (ODM-201)]
'Larvae/adult' ratio [1]: 2
vulvae per adult worm [2]: 1.09

Cc1ccc(NC(=O)c2ccc(CN3CC[C@H](N(C)C)C3)c(C(F)(F)F)c2)cc1Nc1nccc(-c2cncnc2)n1 [Bafetinib (INNO-406)]
'Larvae/adult' ratio [1]: 1.58
vulvae per adult worm [2]: 0.875

COC(=O)c1ccc2c(c1)NC(=O)/C2=C(\Nc1ccc(N(C)C(=O)CN2CCN(C)CC2)cc1)c1ccccc1 [Nintedanib (BIBF 1120)]
'Larvae/adult' ratio [1]: 2.11
vulvae per adult worm [2]: 1.09

Cc1nc(C(=O)NCC(=O)O)c(O)c2ccc(Oc3ccccc3)cc12 [Roxadustat (FG-4592)]
'Larvae/adult' ratio [1]: 2.22
vulvae per adult worm [2]: 0.972

O=C(O)CC[C@H]1CC[C@@](c2cc(F)ccc2F)(S(=O)(=O)c2ccc(Cl)cc2)CC1
'Larvae/adult' ratio [1]: 2.1
vulvae per adult worm [2]: 0.524

C[C@@H](Oc1cc(-n2cnc3ccc(CN4CCN(C)CC4)cc32)sc1C(N)=O)c1ccccc1C(F)(F)F
'Larvae/adult' ratio [1]: 1.83
vulvae per adult worm [2]: 0.793

Nc1nc(Cl)nc2c1ncn2[C@@H]1O[C@H](CO)[C@@H](O)[C@@H]1F [Clofarabine]
'Larvae/adult' ratio [1]: 3.5
vulvae per adult worm [2]: 1.38

COc1cc2c(N3CCN(C(=O)Nc4ccc(OC(C)C)cc4)CC3)ncnc2cc1OCCCN1CCCCC1 [Tandutinib (MLN518)]
'Larvae/adult' ratio [1]: 1.35
vulvae per adult worm [2]: 0.86

O=C(NOC[C@H](O)CO)c1ccc(F)c(F)c1Nc1ccc(I)cc1F
'Larvae/adult' ratio [1]: 1.4
vulvae per adult worm [2]: 0.025

Cc1ncc(Cl)cc1NCc1ccc(C(=O)N[C@@H](CC2CCCC2)C(=O)NC2CC2)s1
'Larvae/adult' ratio [1]: 4.86
vulvae per adult worm [2]: 0.429

Cc1nc(=O)c2cc(CN(C)c3ccc(C(=O)N[C@@H](CCC(=O)O)C(=O)O)s3)ccc2[nH]1 [Raltitrexed]
'Larvae/adult' ratio [1]: 1.98
vulvae per adult worm [2]: 1.09

CCS(=O)(=O)c1cccc(-c2cc(C(=O)NC3CCN(C)CC3)c(C)c3[nH]c4ncc(C)cc4c23)c1
'Larvae/adult' ratio [1]: 1.79
vulvae per adult worm [2]: 1.06

CC(C)Nc1cc(-c2c[nH]c(C(=O)N[C@H](CO)c3cccc(Cl)c3)c2)c(Cl)cn1
'Larvae/adult' ratio [1]: 1.56
vulvae per adult worm [2]: 0.667

Nc1nc(F)nc2c1ncn2[C@@H]1O[C@H](CO)[C@@H](O)[C@@H]1O [Fludarabine]
'Larvae/adult' ratio [1]: 2.38
vulvae per adult worm [2]: 1.1

CCc1cc2c(cc1N1CCC(N3CCOCC3)CC1)C(C)(C)c1[nH]c3cc(C#N)ccc3c1C2=O
'Larvae/adult' ratio [1]: 1.94
vulvae per adult worm [2]: 0.824

CNC(=O)c1ccccc1Sc1ccc2c(/C=C/c3ccccn3)n[nH]c2c1 [Axitinib]
'Larvae/adult' ratio [1]: 1.79
vulvae per adult worm [2]: 0.862

COc1c(C)cnc(Cn2cnc3c(Cl)nc(N)nc32)c1C
'Larvae/adult' ratio [1]: 1.77
vulvae per adult worm [2]: 0.614

COc1cc2ncnc(Nc3ccc(F)c(Cl)c3)c2cc1OCCCN1CCOCC1 [Gefitinib (ZD1839)]
'Larvae/adult' ratio [1]: 2.19
vulvae per adult worm [2]: 1.25

O=C(O)c1ccc(O)c2ncccc12
'Larvae/adult' ratio [1]: 1.75
vulvae per adult worm [2]: 0.528

Nc1nc(NC2CC2)cc(-c2cccc(Cl)c2Cl)n1
'Larvae/adult' ratio [1]: 6.5
vulvae per adult worm [2]: 1.5

COc1cc([C@@H]2c3cc4c(cc3[C@@H](O[C@@H]3O[C@@H]5CO[C@@H](C)O[C@H]5[C@H](O)[C@H]3O)[C@H]3COC(=O)[C@H]23)OCO4)cc(OC)c1O [Etoposide]
'Larvae/adult' ratio [1]: 2.77
vulvae per adult worm [2]: 1.09

CCCN(CCC)C(=O)C1=Cc2ccc(-c3ccc(C(=O)N4CCCC4)cc3)cc2N=C(N)C1 [Motolimod (VTX-2337)]
'Larvae/adult' ratio [1]: 1.84
vulvae per adult worm [2]: 0.889

COc1ccc(Cn2ccc3ccc(C(=O)NO)cc32)cc1
'Larvae/adult' ratio [1]: 2.7
vulvae per adult worm [2]: 0.9

CNc1ncc2cc(-c3cc(NC(=O)NCCC(C)(C)C)c(F)cc3C)c(C)nc2n1
'Larvae/adult' ratio [1]: 3
vulvae per adult worm [2]: 1.19

CNc1nc(-c2ccc3c(N)n[nH]c3c2)cc(N2C[C@@H](C(=O)NC3CCCCC3)CC[C@H]2C)n1
'Larvae/adult' ratio [1]: 1.63
vulvae per adult worm [2]: 0.711

Cc1nc2cccc(N)c2c(=O)n1C1CCC(=O)NC1=O (stereo unspecified) [Avadomide(CC-122)]
'Larvae/adult' ratio [1]: 2.12
vulvae per adult worm [2]: 0.854

N#Cc1ccc2ncnc(NCCc3ccccc3)c2c1 [Senexin A]
'Larvae/adult' ratio [1]: 3.29
vulvae per adult worm [2]: 1.43

CC(=O)O[C@@]12CO[C@@H]1C[C@H](O)[C@@]1(C)C(=O)[C@H](O)C3=C(C)[C@@H](OC(=O)[C@H](O)[C@@H](NC(=O)OC(C)(C)C)c4ccccc4)C[C@@](O)([C@@H](OC(=O)c4ccccc4)[C@H]21)C3(C)C [Docetaxel]
'Larvae/adult' ratio [1]: 4
vulvae per adult worm [2]: 0.125

COc1cc([C@@H]2c3cc4c(cc3[C@@H](O[C@@H]3O[C@@H]5CO[C@@H](c6cccs6)O[C@H]5[C@H](O)[C@H]3O)[C@H]3COC(=O)[C@H]23)OCO4)cc(OC)c1O [Teniposide]
'Larvae/adult' ratio [1]: 1.92
vulvae per adult worm [2]: 1.08

COc1cc2ncnc(Nc3cccc(Cl)c3F)c2cc1OC(=O)N1CCN(C)C[C@H]1C
'Larvae/adult' ratio [1]: 1.4
vulvae per adult worm [2]: 0.743

COc1cc(OC)c(/C=C/S(=O)(=O)Cc2ccc(OC)c(NCC(=O)O)c2)c(OC)c1
'Larvae/adult' ratio [1]: 1.56
vulvae per adult worm [2]: 0.926

Nc1cccc2c1C(=O)N(C1CCC(=O)NC1=O)C2=O (stereo unspecified) [Pomalidomide]
'Larvae/adult' ratio [1]: 1.29
vulvae per adult worm [2]: 1

CCN(CC)Cc1ccc2cc(COC(=O)Nc3ccc(C(=O)NO)cc3)ccc2c1 [Givinostat (ITF2357)]
'Larvae/adult' ratio [1]: 1.74
vulvae per adult worm [2]: 1

N#Cc1ccc(COC[C@H]2O[C@@H](n3c(NCc4ccc(Cl)c(Cl)c4)nc4c(N)ncnc43)[C@H](O)[C@@H]2O)cc1
'Larvae/adult' ratio [1]: 2.52
vulvae per adult worm [2]: 1.09

Nc1ccn([C@@H]2O[C@H](CO)[C@@H](O)C2(F)F)c(=O)n1 [Gemcitabine]
'Larvae/adult' ratio [1]: 1.1
vulvae per adult worm [2]: 0.9

Cn1cnc2c(F)c(Nc3ccc(Br)cc3Cl)c(C(=O)NOCCO)cc21 [Selumetinib (AZD6244)]
'Larvae/adult' ratio [1]: 2.41
vulvae per adult worm [2]: 1

Cc1ccc(NC(=O)c2ccc(CN3CCN(C)CC3)cc2)cc1Nc1nccc(-c2cccnc2)n1 [Imatinib (STI571)]
'Larvae/adult' ratio [1]: 1.65
vulvae per adult worm [2]: 0.725
